## Screening data, single-dose tests

The values are deposited in ChEMBL (CHEMBL3988442, “University of Dundee, Small-Polar-MMV Screening Library” (2021)).

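Assay of Toxoplasma gondii numbers, read through their beta-galactosidase reporter with a colour substrate. Concentration: 50 µM. The record gives no direction; the compounds picked for IC50 retests had high values, so higher reads as fewer parasites. Size under these conditions: about 18,000 compounds, about 170 of them at 50% or above in at least one test.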

Values are the deposited “Percent Effect”, in %.
The record does not define 0% and 100%; most values in the screen are far below 50% and negative numbers occur (in some assays of this library far below -100).
The compounds are a random part of those screened.

SMILES | percent effect
O=C(OCc1cc(=O)n2ccsc2n1)c1cc(Cl)c[nH]1 | 4.249%
CC(=O)c1ccc(C(=O)N[C@@H]2CS(=O)(=O)C[C@H]2O)s1 | -12.42%
COc1ccc(CC#N)cc1S(C)(=O)=O | 54.15%
COc1cccc(C2(F)CCNCC2)c1 | 3.14%
CCc1nnsc1C(=O)N(C)Cc1cc(C)on1 | 29.8%
c1cnc(C2CCCN2)nc1 (stereo not shown) | 30.94%
OCCCc1cccc(CCCO)c1 | -0.7454%
CC(=O)Nc1nc(COc2ccccc2C(N)=O)cs1 | -21.27%
NCc1coc(-c2cccs2)n1 | 2.968%
CCOc1ccc(C(=O)NC2CCCCNC2=O)cc1 (stereo not shown) | 5.617%
CC(C)N(CCC(N)=O)CC1CCOC1 (stereo not shown) | 1.018%
O=C(c1c[nH]c2ccccc12)N1CCCNCC1 | -6.347%
CC1(C)Cc2cccc(OCCN)c2O1 | -8.092%
O=C(C(c1cccnc1)N1CCOCC1)N1CCCC1 (stereo not shown) | -5.636%
O=C(NCc1nnc2n1CCC2)Nc1cccc(F)c1 | -7.953%
CCCc1nc(C(=O)N2CC(c3ccncc3)C2)cs1 | -2.299%
CCOc1ccc(C(=O)N2CCCC(C(N)=O)C2)cn1 (stereo not shown) | 35.37%
COCCNC(=O)CCC1CCN(CCCSC)CC1 | 11.51%
CN(C)C(=O)CN(CC(F)(F)F)C(=O)C1CCCCC1 | -31.03%
Cc1nnsc1CNC(=O)c1ccc2[nH]nnc2c1 | 0.8638%
O=C(CCC1CCCCC1)N1CC[S+]([O-])CC1 | -3.074%
CC1CCCCN1C(=O)NCCNC(=O)c1ccn[nH]1 (stereo not shown) | -2.19%
Cc1ccc(NS(C)(=O)=O)cc1N1CCCC1=O | 2.883%
OCC1COCCN(Cc2c(F)cccc2Cl)C1 (stereo not shown) | -5.429%
Cc1ccc(C(C)NC(=O)NCCN2CCOCC2)o1 (stereo not shown) | -5.873%
O=C(NC1CC1)C1CCCN1c1ccc2nnnn2n1 (stereo not shown) | 14.68%
CCn1cc(Br)c(=O)c(NC(=O)CC(F)(F)F)c1 | -18.93%
CC1(CNC(=O)Nc2ccc(C(N)=O)c(Cl)c2)COC1 | -7.787%
COc1ccc(Br)cc1CNCC1CCS(=O)(=O)C1 (stereo not shown) | -5.767%
COCC(C)NCc1ccc(NC(C)=O)cc1 (stereo not shown) | -2.927%
O=C(NCC1CC1)c1cn(CCC2CCCCN2)nn1 (stereo not shown) | 27.2%
CCCn1cc(NC(=O)C(CC)CC)ccc1=O | 0.297%
Cc1nc(C(=O)NCC(=O)NC(C)C)c(C)s1 | 6.192%
CCS(=O)(=O)NCc1ccc(OC)cc1 | -12.78%
CCn1ccc(C(=O)NCC2CCCCC(=O)N2)n1 (stereo not shown) | -7.574%
Cc1cc(OCCN2CCOCC2)nc2ccccc12 | 0.8902%
CCC(C(=O)Nc1cc2c(cc1C)OCO2)N(C)C (stereo not shown) | -22.25%
CN(C(=O)c1ccncc1)c1ncccc1Br | -9.016%
CC(=O)Nc1cccc(-n2nnnc2SCC#N)c1 | 25.45%
CN(C)c1cc(CNC(=O)c2ccncc2)ccn1 | -1.688%
CN(CC(N)=O)Cc1ccc(S(=O)(=O)N2CCCC2)o1 | 0.7525%
CCCN1CCC(C(N)=O)CC1 | -22.14%
COCCN(CC(N)=O)S(=O)(=O)N1CCCCC1C (stereo not shown) | 11.64%
O=C(NCC(O)c1ccc(Cl)cc1Cl)c1csnn1 (stereo not shown) | 6.05%
CCN1CCC(NC(=O)c2cncc(Br)c2)CC1 | -5.748%
CSCCC(O)c1nc(C2CCOCC2)n[nH]1 (stereo not shown) | 5.557%
CCN(CCC#N)C(=O)CSc1cnn[nH]1 | 20.59%
OC1CCN(C2COC2)CC1 | -51.58%
COCc1cccc(S(=O)(=O)NCC(C)(C)N)c1 | 6.978%
CC(C)CN1CCN(c2ncccc2F)CC1 | 25.95%
NCCCN(C(=O)C1CCC1)C1CC1 | 15.72%
CCN(CC)CC(=O)Nc1ccc2c(c1)OCO2 | 9.319%
CC(C)(C)NC(=O)C1CCCC1 | -5.78%
Nc1nc(N)nc(COC(=O)Cc2ccsc2)n1 | -3.907%
CC(=O)Nc1c[nH]nc1C1CCCNC1 (stereo not shown) | -8.953%
Cc1[nH]n(-c2ccc(C#N)cc2)c(=N)c1C | 6.837%
COc1ccccc1NC(=O)C(C)N1CCNC(=O)C1 (stereo not shown) | -10.34%
NC(=O)c1ccc(CNS(=O)(=O)N2CCOCC2)cc1 | -16.94%
CN1CCCN(C(=O)c2cc3ccccc3[nH]2)CC1 | -19.29%
COc1cc(CNC(=O)c2ccco2)cc(OC)c1 | -18.76%
N#Cc1ccc(OCC(O)CN2CCC(O)CC2)cc1 (stereo not shown) | 11.5%
Cc1nc(CCN(C)C(=O)CCc2cccnc2)no1 | -4.729%
CC(=O)NCCNC(=O)CSCc1cccc(Cl)c1 | -2.86%
CC(C)c1ccc(CNCCNCCO)cc1 | 1.515%
CNC1CCN(c2cccnn2)CC1 | 3.483%
NCC(=O)Nc1ccc(-n2cncn2)cc1 | -2.978%
c1cnn(CCNCCn2cccn2)c1 | -14.98%
CCC[C@H]1CN(C(=O)c2ccc(C)cc2OC)C[C@@H]1N | 13.47%
CCCC1=NNC(=O)C1 | -24.61%
NCc1cn2cc(Br)ccc2n1 | 9.116%
O=C(CSCCN1C(=O)CCC1=O)Nc1ccccc1 | 8.387%
Cc1cccc(C2NCCNC2=O)c1 (stereo not shown) | 3.126%
CN(C(=O)Cn1ccccc1=O)C1CCS(=O)(=O)C1 (stereo not shown) | -1.91%
Cc1ccnc(N2CCNCC2)c1 | 24.68%
COc1ccnc(N2CCCNCC2)n1 | -7.036%
Cc1ccccc1C(=O)NC1CCN(C)CC1 | -13.79%
NS(=O)(=O)CCCc1ccccc1 | 4.265%
C=C(C)CN1CCC(C(N)=O)CC1 | -1.423%
CN1CCCN(C(=O)NC2CCCC2)CC1 | -5.915%
O=C(NCC(F)(F)F)c1ccccc1NCCCO | 5.629%
OC1COC2(CCN(Cc3cc(F)cc(F)c3)CC2)C1 (stereo not shown) | 21.79%
CC(C)c1nnc(SCC(N)=O)n1CC1CCCO1 (stereo not shown) | -4.743%